{"source": "patent US10017538B2", "about": "“Bioactive peptides having insecticide activity” (The United States of America, as represented by the …, priority 2016, dated 2018)"}
{"test_system": "PBAN-R", "test": "Phage display screening of library peptides on insect cells expressing PBAN-R", "assay_type": "binding, Solenopsis invicta", "details": "after three to four rounds of selection on sf9 cells expressing PBAN-R; sequenced phage colonies"}
{"substance": "CERVGSHFC (Synthetically generated peptide) [SEQ ID NO: 5, synthetically generated peptide, loop-constrained by flanking cysteines]", "Abundance of phage clones": 3}
{"substance": "CIQQGSHFC (Synthetically generated peptide) [SEQ ID NO: 4, synthetically generated peptide, loop-constrained by flanking cysteines]", "Abundance of phage clones": 3}
{"substance": "CIVQGSHFC (Synthetically generated peptide) [SEQ ID NO: 10]", "Abundance of phage clones": 2}
{"substance": "CLKIGSHFC (Synthetically generated peptide) [SEQ ID NO: 3, synthetically generated peptide, loop-constrained by flanking cysteines]", "Abundance of phage clones": 7}
{"substance": "CMARYMSAC (Synthetically generated peptide) [SEQ ID NO: 11, synthetically generated peptide, loop-constrained by flanking cysteines]", "Abundance of phage clones": 2}
{"substance": "CQKIGSHFC (Synthetically generated peptide) [SEQ ID NO: 2, synthetically generated peptide, loop-constrained by flanking cysteines]", "Abundance of phage clones": 11}
{"substance": "CQSINGHFC (Synthetically generated peptide) [SEQ ID NO: 8, synthetically generated peptide, loop-constrained by flanking cysteines]", "Abundance of phage clones": 2}
{"substance": "CRGATPMSC (Synthetically generated peptide) [SEQ ID NO: 12, synthetically generated peptide, loop-constrained by flanking cysteines]", "Abundance of phage clones": 2}
{"substance": "CVKLGSHFC (Synthetically generated peptide) [SEQ ID NO: 6, synthetically generated peptide, loop-constrained by flanking cysteines]", "Abundance of phage clones": 2}
{"substance": "CVKQGTHFC (Synthetically generated peptide) [SEQ ID NO: 9, synthetically generated peptide, loop-constrained by flanking cysteines]", "Abundance of phage clones": 2}
{"substance": "ERVGTHF (CERVGTHFC; Synthetically generated peptide) [SEQ ID NO: 20, screened library heptapeptide with flanking cysteine residues]", "Abundance of phage clones": 1}
{"substance": "ERVGTHY (CERVGTHYC; Synthetically generated peptide) [SEQ ID NO: 24, screened library heptapeptide with flanking cysteine residues]", "Abundance of phage clones": 1}
{"substance": "HSRVSGT (CHSRVSGTC; Synthetically generated peptide) [SEQ ID NO: 21, screened library heptapeptide with flanking cysteine residues]", "Abundance of phage clones": 1}
{"substance": "IHIGSHF (CIHIGSHFC; Synthetically generated peptide) [SEQ ID NO: 16, screened library heptapeptide with flanking cysteine residues]", "Abundance of phage clones": 1}
{"substance": "IHXGTHF [SEQ ID NO: 22, screened library heptapeptide with flanking cysteine residues]", "Abundance of phage clones": 1}
{"substance": "IKIGSHY (CIKIGSHYC; Synthetically generated peptide) [SEQ ID NO: 26, screened library heptapeptide with flanking cysteine residues]", "Abundance of phage clones": 1}
{"substance": "IKVGPHY (CIKVGPHYC; Synthetically generated peptide) [SEQ ID NO: 25, screened library heptapeptide with flanking cysteine residues]", "Abundance of phage clones": 1}
{"substance": "IQIGTHF (CIQIGTHFC; Synthetically generated peptide) [SEQ ID NO: 18, screened library heptapeptide with flanking cysteine residues]", "Abundance of phage clones": 1}
{"substance": "LPMTKHV (CLPMTKHVC; Synthetically generated peptide) [SEQ ID NO: 30, screened library heptapeptide with flanking cysteine residues]", "Abundance of phage clones": 1}
{"substance": "LPWQIHN (CLPWQIHNC; Synthetically generated peptide) [SEQ ID NO: 29, screened library heptapeptide with flanking cysteine residues]", "Abundance of phage clones": 1}
{"substance": "NTGGSMA (CNTGGSMAC; Synthetically generated peptide) [SEQ ID NO: 35, screened library heptapeptide with flanking cysteine residues]", "Abundance of phage clones": 1}
{"substance": "NTGSPYE (CNTGSPYEC; Synthetically generated peptide) [SEQ ID NO: 36, screened library heptapeptide with flanking cysteine residues]", "Abundance of phage clones": 1}
{"substance": "QQTKNYY (CQQTKNYYC; Synthetically generated peptide) [SEQ ID NO: 32, screened library heptapeptide with flanking cysteine residues]", "Abundance of phage clones": 1}
{"substance": "QRIGLHY (CQRIGLHYC; Synthetically generated peptide) [SEQ ID NO: 27, screened library heptapeptide with flanking cysteine residues]", "Abundance of phage clones": 1}
{"substance": "QSIGTHF (CQSIGTHFC; Synthetically generated peptide) [SEQ ID NO: 19, screened library heptapeptide with flanking cysteine residues]", "Abundance of phage clones": 1}
{"substance": "SQLPWYS (CSQLPWYSC; Synthetically generated peptide) [SEQ ID NO: 34, screened library heptapeptide with flanking cysteine residues]", "Abundance of phage clones": 1}
{"substance": "TNANHYF (CTNANHYFC; Synthetically generated peptide) [SEQ ID NO: 31, screened library heptapeptide with flanking cysteine residues]", "Abundance of phage clones": 1}
{"substance": "TNGDSAR (CTNGDSARC; Synthetically generated peptide) [SEQ ID NO: 33, screened library heptapeptide with flanking cysteine residues]", "Abundance of phage clones": 1}
{"substance": "TQIGTHF (CTQIGTHFC; Synthetically generated peptide) [SEQ ID NO: 17, screened library heptapeptide with flanking cysteine residues]", "Abundance of phage clones": 1}
{"substance": "TXVGSHF [SEQ ID NO: 15, screened library heptapeptide with flanking cysteine residues]", "Abundance of phage clones": 1}
{"substance": "VSRTSHL (CVSRTSHLC; Synthetically generated peptide) [SEQ ID NO: 28, screened library heptapeptide with flanking cysteine residues]", "Abundance of phage clones": 1}
{"substance": "YSSPSHF (CYSSPSHFC; Synthetically generated peptide) [SEQ ID NO: 23, screened library heptapeptide with flanking cysteine residues]", "Abundance of phage clones": 1}
